The target of this test is Hdm2 (human (endogenous in MCF7)) (UniProt Q00987). Briefly: co-IP; endogenous proteins of MCF7 cell extracts; cells with or without 6 Gy IR (harvested 3 h after IR), MG132 in the reciprocal IP; lysis buffer 50 mM Tris-HCl pH 7.4, 1 mM EDTA, 150 mM NaCl, 0.5% NP40; protein A/G Plus-agarose, 4°C; western blot. On the technique in general: A western blot detects proteins with antibodies after separation by electrophoresis.

By UniProt entry, the sequences of proteins in these tests, tags left out.
UniProt Q00987: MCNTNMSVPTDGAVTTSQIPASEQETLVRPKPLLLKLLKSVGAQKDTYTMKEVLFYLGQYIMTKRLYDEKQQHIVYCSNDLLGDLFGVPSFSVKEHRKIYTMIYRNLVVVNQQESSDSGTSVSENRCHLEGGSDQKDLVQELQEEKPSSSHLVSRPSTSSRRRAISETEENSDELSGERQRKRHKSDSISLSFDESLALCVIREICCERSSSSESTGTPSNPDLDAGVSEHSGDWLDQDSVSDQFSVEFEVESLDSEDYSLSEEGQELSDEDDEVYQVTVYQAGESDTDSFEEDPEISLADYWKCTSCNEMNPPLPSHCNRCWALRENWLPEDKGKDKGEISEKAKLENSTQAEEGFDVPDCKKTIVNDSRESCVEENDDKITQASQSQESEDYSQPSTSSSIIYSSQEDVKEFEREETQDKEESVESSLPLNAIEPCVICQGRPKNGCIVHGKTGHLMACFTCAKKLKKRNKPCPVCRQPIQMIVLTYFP
UniProt O95155: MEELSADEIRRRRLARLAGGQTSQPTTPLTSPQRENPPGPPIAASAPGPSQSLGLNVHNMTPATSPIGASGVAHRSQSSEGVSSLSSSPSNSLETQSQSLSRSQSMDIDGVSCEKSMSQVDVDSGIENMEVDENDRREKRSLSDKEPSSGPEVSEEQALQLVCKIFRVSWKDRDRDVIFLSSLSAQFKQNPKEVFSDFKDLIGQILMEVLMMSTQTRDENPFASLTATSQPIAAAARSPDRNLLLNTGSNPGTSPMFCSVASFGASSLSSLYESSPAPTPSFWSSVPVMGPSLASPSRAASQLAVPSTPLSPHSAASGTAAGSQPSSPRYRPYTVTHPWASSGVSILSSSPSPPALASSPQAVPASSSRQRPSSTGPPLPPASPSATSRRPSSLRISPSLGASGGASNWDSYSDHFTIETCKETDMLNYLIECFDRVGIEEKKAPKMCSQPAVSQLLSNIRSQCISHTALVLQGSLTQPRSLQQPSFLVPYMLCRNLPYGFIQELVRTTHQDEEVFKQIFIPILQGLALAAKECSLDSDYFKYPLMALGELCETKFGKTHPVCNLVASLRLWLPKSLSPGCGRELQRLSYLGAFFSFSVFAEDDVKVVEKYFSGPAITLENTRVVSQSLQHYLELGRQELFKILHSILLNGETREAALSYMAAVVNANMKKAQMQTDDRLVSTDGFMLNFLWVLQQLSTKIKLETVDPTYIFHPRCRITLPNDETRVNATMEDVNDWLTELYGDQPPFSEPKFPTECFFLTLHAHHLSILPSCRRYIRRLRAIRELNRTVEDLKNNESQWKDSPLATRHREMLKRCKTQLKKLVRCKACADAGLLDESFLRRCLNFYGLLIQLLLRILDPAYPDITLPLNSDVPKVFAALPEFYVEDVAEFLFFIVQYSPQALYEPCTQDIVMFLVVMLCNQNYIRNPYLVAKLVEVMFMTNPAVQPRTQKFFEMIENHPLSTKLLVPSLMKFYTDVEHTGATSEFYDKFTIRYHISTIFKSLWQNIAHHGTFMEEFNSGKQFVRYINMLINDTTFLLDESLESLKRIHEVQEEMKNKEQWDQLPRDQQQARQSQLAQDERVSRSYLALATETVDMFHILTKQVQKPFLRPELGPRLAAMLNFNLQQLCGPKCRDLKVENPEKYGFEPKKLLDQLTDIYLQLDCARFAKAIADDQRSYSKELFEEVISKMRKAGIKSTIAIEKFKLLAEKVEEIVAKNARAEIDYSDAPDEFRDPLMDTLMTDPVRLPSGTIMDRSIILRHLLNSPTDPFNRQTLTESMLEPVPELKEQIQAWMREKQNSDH

No constants are given. Whether binding was seen depends on the method and setting. Binding seen in cells or lysates may run through a third protein. Some entries that bind do so weakly or less than the wild type.

Take “UBE4B (from UniProt O95155 1-1302) (enzyme)”: the binding entry is reported as “binds”.

These data come from article PMC4823074.
